# Test results as given in publication PMC6353211.
# Sequences of proteins named here, by UniProt entry; tags and fusion partners are left off.
# UniProt Q04206, whole entry: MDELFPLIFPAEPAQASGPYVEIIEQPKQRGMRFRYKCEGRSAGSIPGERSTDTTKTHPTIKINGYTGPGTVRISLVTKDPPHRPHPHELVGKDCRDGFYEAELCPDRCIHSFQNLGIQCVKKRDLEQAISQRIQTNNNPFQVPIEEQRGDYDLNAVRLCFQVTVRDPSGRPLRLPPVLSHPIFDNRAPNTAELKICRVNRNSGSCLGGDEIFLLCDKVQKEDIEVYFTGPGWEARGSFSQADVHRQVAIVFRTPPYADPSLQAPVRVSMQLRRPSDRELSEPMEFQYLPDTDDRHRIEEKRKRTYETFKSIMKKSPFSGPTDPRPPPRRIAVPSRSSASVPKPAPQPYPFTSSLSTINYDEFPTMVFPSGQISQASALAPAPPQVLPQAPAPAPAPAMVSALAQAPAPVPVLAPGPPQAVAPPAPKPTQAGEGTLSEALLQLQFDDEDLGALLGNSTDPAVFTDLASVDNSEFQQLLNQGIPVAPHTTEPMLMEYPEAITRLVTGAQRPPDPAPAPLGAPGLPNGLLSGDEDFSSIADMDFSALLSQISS
# The exact form of at least one protein or probe is not confirmed.
# Target: p65-Halo-FLAG (wild type, JF549-labeled) (UniProt Q04206)
# Assay: EMSA
# Conditions: 0.5 uM dsDNA, 0.1, 0.3, 0.6 ug protein in 20 uL, 12.5 mM Mg2+, 25 mM HEPES pH 7.6, 0.1 mM EDTA, 12.5 mM MgCl2, 100 mM KCl, 0.01% NP-40 alternative, 10% …, 4 C 60 min then RT 10 min, 1% agarose, 0.5x TBE, recombinant protein, protein details: Halo, label: 5' Atto647N on sense strand
sequence,measurement,value
AGTTGAGGGGACTTTCCCAGGC (double strand) [ds-kB-oligo (p65_kB consensus)],binding result,binds
